Binding data for three molecules are collected here from patent publication US20230265185A1 (NATIONAL RESEARCH COUNCIL OF CANADA, published 2023).

Sequences of proteins named here, by UniProt entry; tags and fusion partners are left off. Residues count along the entry.
hCD22 fragment Bin 6, IVR6 (aa476-575), displayed on yeast cells (P20273, residues 495-594): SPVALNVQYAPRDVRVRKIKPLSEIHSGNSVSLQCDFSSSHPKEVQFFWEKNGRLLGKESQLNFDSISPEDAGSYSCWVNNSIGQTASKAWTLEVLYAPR
hCD22 fragment Bin 7, IVR7 (aa561-668), displayed on yeast cells (P20273, residues 580-687): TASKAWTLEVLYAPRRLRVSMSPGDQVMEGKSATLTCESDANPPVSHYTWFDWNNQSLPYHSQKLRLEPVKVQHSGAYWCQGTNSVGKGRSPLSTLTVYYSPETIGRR

In assay [1] the target is hCD22 fragment Bin 6, IVR6 (aa476-575), displayed on yeast cells (human) (UniProt P20273). In words: yeast display cell ELISA. In general terms: ELISA stands for enzyme-linked immunosorbent assay.
Assay [2] concerns the target hCD22 fragment Bin 7, IVR7 (aa561-668), displayed on yeast cells (human) (UniProt P20273). In words: yeast display cell ELISA.

Results are given in words; binding and its absence hold for the method and conditions named.

B1: hCD22pas-24 (VHH)
VHH: QVQLVESGGGLVQAGGSLRLSCSASGITSSINSMGWHRQAPGKQRELVASIGRGGSGSTKYADSGKGRFLISRDNNKNILFLEMNSLKPEDTADYYCLEVTTDLSSYWGRGTQVTVSS
modifications: single biotin at the VHH C-terminal (biotinylation signal sequence)
notes: llama VHH, expressed in E. coli TG1, IMAC purified, monomeric SEC fraction; also called VHH # 26; 8-hCD22 pas-24
Consider B1, for which, in assay [1], the binding entry is given as “no binding (tested: OD450 not above 0.25; sdAb 250 nM)”.

B2: hCD221ug-80 (VHH)
VHH: QVQLVESGGGLVQPGGSLRLSCTFSGFTLDYYVMVWFRQAPGKEREAVSCITSDGVTYYADSVKGRFTISRDNAKNTVYLQMNRVKPEDTAVYYCAVDKPFYDGGIQYTCPVDFDSWGQGAQVTVSS
modifications: single biotin at the VHH C-terminal (biotinylation signal sequence)
notes: llama VHH, expressed in E. coli TG1, IMAC purified, monomeric SEC fraction; also called VHH # 1; 2-hCD22 1ug-80
With B2, the binding result in assay [2] was “no binding (tested: OD450 not above 0.25; sdAb 250 nM)”.

B3: hCD221ug-13 (VHH)
VHH: QVQLVESGGGLVQAGDSLRLSCAGSGGSFSSVTMAWFRQAPGKDREFVAAITWSSPSTYYADSVKGRFTISRDNAKNTVYLQMNSLKPEDTAVYYCAGGRTGRGTSADTDEYNYWGQGTQVTVSS
modifications: single biotin at the VHH C-terminal (biotinylation signal sequence)
notes: llama VHH, expressed in E. coli TG1, IMAC purified, monomeric SEC fraction; also called VHH # 21; 1-hCD22 1ug-13
Turning to B3, the binding entry in assay [2] is “no binding (tested: OD450 not above 0.25; sdAb 250 nM)”.
